In PubChem BioAssay AID1471 (National Center for Advancing Translational Sciences (NCATS), 2008):
In all, about 230,000 compounds went through this assay and about 310 (0.13%) were called active. About 2% were inconclusive and are not listed. The call rests on the fitted dose curve; in most records, active means well fitted activation curve with a large enough effect; inconclusive means small, poorly fitted or top-dose-only effect; inactive means no such curve, though single readings can be large or run the other way. The entries are a selection whose mix differs from that of the whole data set. Entries without a call were filed so in the source.

Test: qHTS Multiplex Assay to Identify Dual Action Probes in a Cell Model of Huntington: Cytoprotection (ATP); further: nearly all actives have a fitted effect of over 45% in size;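 on cytoprotection (ATP increase): toxic huntingtin expression switched on by the ecdysone agonist tebufenozide; % of control where 0% means no effect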
Conditions: PC12 HTT-Q103 induced, ATP luminescence, 40 h; cytoprotection (ATP increase): at 56.4 µM (top of the series) unless noted
Text: NIH Chemical Genomics Center [NCGC]
NIH Molecular Libraries Probe Production centers Network [MLPCN]
Assay Submitter (PI): Wei Zheng
Huntington's disease is a neurodegenerative disorder caused by a trinucleotide repeat expansion in Exon 1 of the Huntingtin gene. The CAG trinucleotide encodes glutamine and polyglutamine expansions cause cell death in selective areas of the brain. Huntington polyglutamine repeats have the tendency to form aggregates which are observable in later stages of the disease. The exact nature of the aggregates, whether toxic, protective, or insignificant, is unclear.
A stable PC12 cell line containing a gene fusion of Exon 1 of the Huntingtin gene linked to GFP under the control of the inducible ecdysone promoter were used as the cell-based model of Huntington Disease for high throughput screening. Exon 1 of the Huntingtin gene contained an expansion of 103 polyglutamines (Q103) which, when expressed, caused cell death and distinct, bright GFP aggregates. The amount of cell death and the size and intensity of GFP aggregates increased over time and induction level. The cell death were quantified with a measurement of ATP content in the cells. A maximal 40-50% of cell death was observed when the Huntington gene was induced in this cell line.
We optimized this assay in a homogeneous 1536 well format. A quantitative high throughput screen (qHTS) was conducted on the PC12 cells which were induced to express the toxic fusion construct. Small molecules which prevented cell death were identified by using a luminescent ATP quantification method (Perkin Elmer's ATPlite).
PC12 cells stably containing a construct with an ecdysone inducible promoter expressing GFP fused to the exon 1 of HTTQ103 (Huntington protein which containing a 103 ployglutamine expansion) were used.
NCGC Assay Protocol Summary:
Sequence, Parameter, Description
1, Reagent, 5 uL 1500 cells/well 1536 TC treated White clear bottom plate
2, Compound, 23 nL Tebufenozide inducer (100 nM final) to all columns
3, Compound, 23 nL 40 uM to 0.5 nM Libraries
5, Reagent, 5 ul ATPLite cell death assay reagent
6, Detector, 4 sec integration with a Viewlux Luminescent
Media consisted of phenol red free DMEM + 5% equine serum (Hyclone # SH30072.03 ), 5% supplemented Bovine Calf Serum (Hyclone # SH30074.03 ), 1x pen/strep, no G418
Control columns: 1 = DMSO, 2= 2 uM teb dilns (1:1), 4 = 100 nM Teb inducer. Sample columns received 100 nM Teb.
Potency means the concentration at half of the fitted maximal effect.

Compound | cytoprotection (ATP increase) | Potency
CCCCC1=CC2=CC(=O)C(C)(OC(=O)CCC(=O)OC)C(=O)C2=CO1 (stereo not given) | -42.1% | –
CCOc1ccc(NC(=S)N(CCCN2CCCC2)Cc2cccn2Cc2ccc(Cl)cc2)cc1 | -33.5% | –
Cc1cc(OCc2cccc(Cl)c2)c(C)cc1CN1CCOCC1 | – | active: 1.12 µM
O=C1CCC([N+](=O)[O-])C(c2ccc(Cl)c([N+](=O)[O-])c2)N1 (stereo not given) | 121% | –
COc1ccc2c(c1)CC[C@@H]1[C@@H]2CC[C@]2(C)[C@@H](NCCCCCCN3C(=O)C=CC3=O)CC[C@@H]12 | 3.96% | –
CC[C@H](C)[C@@H](NC(=O)O[C@@H]1C(=O)c2cc(Br)ccc2O[C@H]1c1cccc(OC)c1)C(=O)OC | -81.2% | –
CC(=O)n1cc([C@@H]2C=C(C(=O)NCc3ccccc3)O[C@H](OCCCCO)C2)c2ccccc21 | 205% [at 10 µM] | –
COc1cc(C/C=C/c2ccccc2)c(OC)cc1O | -167% | –
O=C(CCCc1cccs1)Nc1nc2c(s1)CCCC2 | 309% [at 10 µM] | –
O=C(O)C1CCC(=O)N(C2CCCCC2)C1c1ccccc1 (stereo not given) | 333% [at 10 µM] | –
COC(=O)/C=C/c1cccc([C@H]2[C@@H]3C=CC[C@@H](C)[C@@H]3C(=O)N2Cc2ccccc2)c1 | -93.7% | –
CC1Cc2ccccc2N1Cc1cc(=O)n2ccsc2n1 (stereo not given) | 334% [at 10 µM] | –
COC(=O)c1nnc(SC)nc1C(=O)OC | 24.7% | –
COc1cccc2c1CCC1=CC(=O)CC[C@@]12C | -8.08% | –
Oc1ccc(Cl)cc1N=Cc1sc2ccccc2c1Cl | – | active: 2.24 µM
COc1cc(/C=C/C(=O)N2CCC=CC2=O)cc(OC)c1OC | -339% | –
O=c1cc(-c2ccccc2Cl)oc2cccc(O)c12 | -44% [at 96.6 µM] | –
O=C1NCC(c2ccccc2)C1C(=O)N/N=C/c1ccc(Cl)s1 (stereo not given) | 24.3% [at 10 µM] | –
COC[C@H]1O[C@@H](c2c(OC)cc(OC)cc2OC)[C@H](OC)[C@@H](OC)[C@@H]1OC | -40.5% | –
C=C1c2c(Cl)ccc(O)c2C(O)=C2C(=O)[C@]3(O)C(O)=C(C(N)=O)C(=O)C(N(C)C)C3C(O)C12 (stereo not given in full) | -193% | –
CC[C@@H]1C(c2cccc(C)c2)=NN(c2ccc(Br)cc2)[C@H]1C(=O)N1CCOC1=O | 34.3% | –
COC(=O)C1=C(C)N(Cc2ccccc2)C(=O)N[C@@H]1c1ccccc1 | -0.169% | –
O=C1OCCN1C(=O)[C@H]1[C@H](c2ccc(Cl)cc2)C(c2cccc(Cl)c2)=NN1c1ccc(Br)cc1 | -211% [at 40.3 µM] | –

Retrieved by compound from above:
Compound | cytoprotection (ATP increase) | Potency
CCCCC1=CC2=CC(=O)C(C)(OC(=O)CCC(=O)OC)C(=O)C2=CO1 (stereo not given) | -42.1% | –
COc1cc(C/C=C/c2ccccc2)c(OC)cc1O | -167% | –

Next entries follow.

Compound | cytoprotection (ATP increase) | Potency
O=C(Nc1nc2ccccc2s1)c1ccc(F)cc1 | 351% [at 10 µM] | –
C=C1C(=O)[C@]23[C@H](O)[C@H]1CC[C@H]2[C@@]12COC3(O)[C@H](O)[C@@H]1C(C)(C)CC[C@@H]2O | -351% | –
O=C(Nc1ccc(CSc2ccccc2)cc1)c1ccc(CN2CCOCC2)cc1 | 160% [at 10 µM] | –
CCn1cc(C(=O)N2CCN(c3ccccn3)CC2)c(=O)c2cc(S(=O)(=O)N(C)C3CCCCC3)ccc21 | -35.5% | –
O=C(COC(=O)C1CC1)c1c[nH]c2ccccc12 | 359% [at 10 µM] | –
COc1ccccc1[C@@H]1C(c2cccc(Cl)c2)=NN(c2ccc(Br)cc2)[C@H]1C(=O)N1CCOC1=O | -56% [at 40.3 µM] | –
COc1ccccc1OCC(O)COC(N)=O (stereo not given) | -51.3% | –
O=C(NN=C1CCCCC1)c1cc(-c2ccccc2)n[nH]1 | 180% [at 10 µM] | –
C[C@@H]1C(=O)OC2C[C@@]34[C@H]5C[C@@H](C(C)(C)C)[C@@]36C(O)C(=O)O[C@H]6O[C@@]4(C(=O)O5)[C@]21O (stereo not given in full) | -177% | –
O=C(NCc1ccccc1)C1COc2ccccc2O1 (stereo not given) | 357% [at 1.9 µM] | –
COc1ccc([N+](=O)[O-])cc1NC(=O)C1(c2ccccc2)CCOCC1 | -40.4% | –
O=C(c1ccc(Cl)cc1[N+](=O)[O-])N1CCOCC1 | -52.3% | –
COC(=O)c1cccc(NC(=O)CCSc2ccc(Cl)cc2)c1C | 127% | –
Nc1ccccc1C(=O)C[C@@H](N)C(=O)O | -10.8% | –
COc1ccc(/C=C/C(=O)c2ccc(O)cc2O)cc1OC | 113% | –
CC(=O)[C@H]1[C@H](C#N)CC2C3CC=C4C[C@@H](O)CCC4(C)C3CCC21C (stereo not given in full) | 9.12% | –
Cc1nnc(N2C(=O)c3oc4ccccc4c(=O)c3C2c2ccco2)s1 (stereo not given) | 269% [at 10 µM] | –
Cn1nccc1C(=O)Oc1ccc(/C=N/NC(=O)c2ccccc2O)cc1 | – | active: 0.891 µM
CCOC(=O)C1=C(C(F)(F)F)Nc2ncnn2C1c1cccc(OC)c1OC (stereo not given) | 154% [at 10 µM] | –
CN(C)c1ccc(O)c2c1C[C@@H]1C[C@H]3C(N(C)C)C(=O)C(C(N)=O)=C(O)[C@@]3(O)C(=O)C1=C2O (stereo not given in full) | -46.9% | –
OC[C@@H]1[C@@H](c2ccccc2)C(c2cccc(Cl)c2)=NN1c1ccccc1 | -306% | –
O=C(CC12CC3CC(CC(C3)C1)C2)NCC(=O)OCc1cc(=O)oc2ccc3ccccc3c12 | 353% [at 10 µM] | –
